Construct, isoform or probe ends are uncertain for at least one entry. A weaker result is weaker than the reference pair of the same experiment. Protein sequences can lack the tags named with them.
Biological target: T1, Lsr2 (Streptomyces venezuelae ATCC 10712) (UniProt F2R951)
T1 sequence (looked up, limits assumed): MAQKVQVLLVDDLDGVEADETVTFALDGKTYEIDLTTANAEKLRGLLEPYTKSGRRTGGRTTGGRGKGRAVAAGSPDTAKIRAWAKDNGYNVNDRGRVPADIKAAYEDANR
Test: EMSA
Conditions: 0-500 nM Lsr2, 1 nM probe, 5 mM Mg2+; 10 mM Tris pH 7.8, 5 mM MgCl2, 60 mM KCl, 10% glycerol; Lsr2 (EMSA, AFM): room temperature 10 min then ice 30 min; CmlR: 30 C 30 min; recombinant protein; label: 5' 32P; probe letters rebuilt from the primers and the genome

ATATCCGGTACCCCAAGGAAGAGAACAGCTTCCCGATGGGTATCAAGAACACTAGCGTGCGCCCGCACGCCCAGTCCCGTAACGACGGGAAAAGCCACCCTTCTCAGTGCGGCGGCGTCACCCACGACAACATCCGCCACACCACCCGCTTCACGGTGGTCGGCAACCATCTCGCCCAGCACGACGAGCTGTCGCTGACGGCGATCGGCCTGGCCGTCCACATCCAGTCGCTCCTCTAGAGGATAT (double strand) [sven3556 probe]
binding result: binds more weakly

— paper PMC8406272
